Test results published in US20170204184A1.
Positions count from the first letter of the chain named. These are yes or no findings as the source states them, for the method shown. Some entries that bind do so weakly or less than the wild type.

The chains behind the UniProt entries cited, without tags or fusion partners. Residues count along the entry.
UniProt Q9NZQ7, residues 19-290: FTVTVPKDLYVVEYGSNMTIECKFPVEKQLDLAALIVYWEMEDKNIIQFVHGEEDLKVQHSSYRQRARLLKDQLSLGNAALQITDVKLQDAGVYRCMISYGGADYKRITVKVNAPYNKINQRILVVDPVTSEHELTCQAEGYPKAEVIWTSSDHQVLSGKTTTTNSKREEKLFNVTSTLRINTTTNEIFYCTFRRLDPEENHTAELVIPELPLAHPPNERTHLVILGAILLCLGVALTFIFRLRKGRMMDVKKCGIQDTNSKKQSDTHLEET

B1: m15F1 (antibody, V domains shown)
VH: EEKLVESGGGLVKPGGSLKLSCAASGFSFSSYGMSWVRQTPEKRLEWVASISSGGSIYYPDSVKGRFTISRDNARNILYLQMSSLRSEDTAMYYCARGYDAGFAFWGQGTLVTASA
VL: DIVLTQSPASLAVSLGQRATISCRASQSVSTSSYSYVHWYQQKPGQPPKLLIKYASNLESGVPARFSGSGSGTDFTLNIHPVEEEDTATYYCQHSWEIPYTFGGGTKLEIK
B2: m5G9 (antibody, V domains shown)
VH: EVKLVESGGGLVKPGGSLKLSCAASGFTFRSYGMSWVRQTPEKRLEWVASISSGGTTYYPDSVKGRFIISRDNARNILYLQMSSLRSEDTAMYYCAKGYDSGFAYWGQGTLVIVSA
VL: B1 VL with A9P, Y34S, V37M
B3: m13C5 (antibody, V domains shown)
VH: B2 VH with T28I, T56S, I68T, Y94D, K97R, I113T, A116E
VL: DIVLTQSPASLAVSLGQRATISCRASQSVSTSSSSFMHWYQQKPGQPPKLLIKYASNLESGVPARFSGSGSGTDFTLNIHPVEEEDTATYYCQHSWEIPYTFGGGTKLEIKR
B4: m8H4 (antibody, V domains shown)
VH: B2 VH with V37A, T40I, P60L, D61G, K64Q, I68T, K97R, S101A, I113S, A116E
VL: B1 VL with V37M, H94N
B5: m4A8 (antibody, V domains shown)
VH: QVQLKQSGPGLVQPSQSLSITCTVSGFSLTSYGVHWVRQSPGKGLEWLGVIWSGGITDYNAAFKSRLSISKDNSKSQVFFKMNSLQANDTAIYFCARLGFYAMDYWGQGTSVTVSS
VL: QIVLTQSPAIMSASPGEKVTMTCSANSSVSYMHWYQQKSGTSPKRWIYDTSKLASGVPARFSGSGSGTSYSLTISSMGAEDAATYYCQQWSSNPWTFGGGTKLEIK
B6: ch8C6-hIgG4 (antibody, V domains shown)
VH: B5 VH with I56V, K64I, F94Y
VL: SIVMTQTPKFLLVSAGDRVTITCKASQSVSNDVGWYQQKPGQSPKLLIYYASNRYSGVPDRFTGSGYGTDFTFTISTVQAEDLAVYFCQQDYTSPYTFGGGTKLEIKR
B7: m8C6 (antibody, V domains shown)
VH: B5 VH with I56V, K64I, F94Y
VL: SIVMTQTPKFLLVSAGDRVTITCKASQSVSNDVGWYQQKPGQSPKLLIYYASNRYSGVPDRFTGSGYGTDFTFTISTVQAEDLAVYFCQQDYTSPYTFGGGTKLEIK
B8: m5G11 (antibody, V domains shown)
VH: B5 VH with S31T, S53R, G55V, I56T, K64M, S68T, S70T, F94Y
VL: B7 VL with G34A, S52A, S56T, T77I
B9: m7B4 (antibody, V domains shown)
VH: EVKLFESGGGLVQPGGSLKLSCVASGFDFSTYWMHWVRQAPGQGLEWIGQINPDSTTINYAPSLKDRFIISRDNAKNTLFLQMSKVRSEDTALYYCAKPGDYGYDFDCWGQGTTLTVSS
VL: DVLMTQTPLYLPVSLGDQASISCRSSQIIVHSNANTYLEWFLQKPGQSPKLLIYKVSNRFSGVPDRFSGSGSGTDFTLKISRVEAEDLGVYYCFQGSHVPYTFGGGTKLEIK
B10: ch8H4-hIgG4 (antibody, V domains shown)
VH: B2 VH with V37A, T40I, P60L, D61G, K64Q, I68T, K97R, S101A, I113S, A116S
VL: B3 VL with S34Y, F36Y, H94N

Molecular target: PD-L1 on 293T cells (UniProt Q9NZQ7)
Assay: flow cytometry blocking: biotinylated PD-1 binding to PD-L1-293T cells, MFI

binding | Binder
binds | B1
binds | B2
binds | B3
binds | B4
binds | B5
binds | B6
binds | B7
binds | B8
binds | B9
binds | B10

Molecular target: PD-L1 on 293T cells (UniProt Q9NZQ7)
Assay: flow cytometry on PD-L1-293T cells, MFI

binding | Binder
binds | B1
binds | B2
binds | B3
binds | B4
binds | B5
binds | B7
binds | B8
binds | B9

Molecular target: PD-L1 on 293T cells (UniProt Q9NZQ7)
Assay: flow cytometry on PD-L1-293T cells

binding | Binder
binds | B1
binds | B2
binds | B3
binds | B4
binds | B5
binds | B7
binds | B8
binds | B9
